The source of these data is the supplement of paper PMC5407854, “Inhibitor of ppGalNAc-T3-mediated O-glycosylation blocks cancer cell invasiveness and lowers FGF23 levels” (eLife, 2017).

The list shows a part of the results. Most values lie at the level of the controls, where differences are scatter.

The first experiment deals with ppGalNAc-T3 sensor. Description: T3 sensor activation Q score (MG/GFP ratio z-score vs DMSO controls) (SD units); higher = more sensor activation (inhibition of ppGalNAc-T3 glycosylation). The conditions noted are these: HEK293 sensor cells; 10 µM; 6 h. As for the experimental part: (§1)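 Cells were treated with compound at 10 uM for 6 h, then MG/GFP ratio was read by flow cytometry (10,000 cells per well, duplicate wells). Q = (R - R_neg)/SD_neg relative to DMSO vehicle controls; the signal rises when the glycosyltransferase is inhibited.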
As for `Fc1ccc(OCCCN2CCOCC2)cc1`, the “T3 sensor activation Q score” value was -0.015. On the same count and under the same terms, then `Clc1ccc(-c2cn3ccsc3n2)cc1`, with 0.38.

Consider `O=C(O)CCC(=O)Nc1ccc2c(c1)oc1ccccc12`, for which the “T3 sensor activation Q score” value turned out to be 0.755. On the same count and under the same terms, with `COc1ccc(-c2nc3ccccc3[nH]2)cc1` the figure was 0.7; with `COc1ccc(CC(=O)N2CCCC2)cc1`, 0.255; with `O=C(O)Cn1cc(Br)c(=O)[nH]c1=O`, 0.705.

As for `O=[N+]([O-])c1ccc(CN2CCN(c3ncccn3)CC2)cc1`, the “T3 sensor activation Q score” value amounted to 0.53. Still for that read-out and setting: then `CCCC(O)=C1C(=O)CC(C)(C)CC1=Nc1ccncc1`, with -0.36; and `Cc1ccc(NC(=O)NC(C)(C)C)cc1`, with 1.12. On the same count and under the same terms, with `CCc1ccc(OCC(O)CN2CCCC2)cc1` (stereo not drawn) the figure was -0.03.

For `CC(=O)NCC1OCCc2ccccc21` (stereo not drawn), the “T3 sensor activation Q score” value stood at 0.85. Regarding `CN1c2ccccc2N(C)C1c1ccc2c(c1)OCO2`, the “T3 sensor activation Q score” value amounted to 1.05. Still for that read-out and setting: with `Nc1nnc(Cc2ccc([N+](=O)[O-])cc2)s1` the figure was 0.485; with `Cc1cccc(N2C(=O)CC(N3CCN(c4ccc(Cl)cc4)CC3)C2=O)c1` (stereo not drawn), -0.29; with `COc1ccc(CNCc2ccc(OC)cc2)cc1`, -0.28.

`Nc1nc(N)nc(-c2ccc(I)cc2)n1`: the “T3 sensor activation Q score” value is -0.3. Still for that read-out and setting: with `NNC(=O)c1n[nH]c2c1CCCC2` the figure was 0.175; with `NCc1ccc(C(=O)NN)cc1`, 1.45.

The next experiment has as its system ppGalNAc-T2 sensor. In words: T2 sensor activation Q score (MG/GFP ratio z-score vs DMSO controls) (SD units); higher = more sensor activation (inhibition of ppGalNAc-T2 glycosylation). The following applies: HEK293 sensor cells; 10 µM; 6 h. The protocol: as §1
For the compound `OC(CN1CCOCC1)Cn1c2ccccc2c2ccccc21` (stereo not drawn), the “T2 sensor activation Q score” value came to 0.475. For the compound `CCc1ccccc1NC(=O)C(Cc1ccccc1)N1C(=O)c2ccccc2C1=O` (stereo not drawn), the “T2 sensor activation Q score” value is -0.125.

Take `COC(=O)Nc1nc2ccc(C(=O)c3ccccc3)cc2[nH]1`: the “T2 sensor activation Q score” value is -0.435. On the same count and under the same terms, then `CCN(CCN(C)C)Cc1ccc(F)cc1`, with -0.055; and `COc1ccccc1NC(=O)c1cccc(C)c1`, with -0.655. The same measure, in the same setting: then `CCOc1ccc(NC(=O)Nc2cccc(Cl)c2)cc1`, with 0.84; and `CN(C)CCNc1ncnc2scc(-c3ccccc3)c12`, with -0.24; and `CC(C)(C)c1nc(CN2CCCCC2)cc(CN2CCCCC2)c1O`, with -1.36.

As for `CC(C)c1cc(C(C)C)c(S(=O)(=O)NCCO)c(C(C)C)c1`, the “T2 sensor activation Q score” value is -0.745.

For the compound `O=C(NCc1ccncc1)c1ccc(Br)cc1`, the “T2 sensor activation Q score” value worked out at 0.225. In the case of `COc1ccc(N2C(=O)CC(N3CCN(C/C=C/c4ccccc4)CC3)C2=O)cc1` (stereo not drawn), the “T2 sensor activation Q score” value amounted to 1.43. On the same count and under the same terms, with `CC1CN(CCC(C)c2ccccc2)CC(C)O1` (stereo not drawn) the figure was 0.325. On the same count and under the same terms, with `O=C(c1cccs1)N1CCN(c2ccc([N+](=O)[O-])cc2)CC1` the figure was 0.375; with `Cc1cccc(N(CC(=O)O)CC(=O)O)c1`, 0.775. Same read-out and setting: then `O=S(=O)(Nc1ccc(O)c(Br)c1)c1ccc(Cl)cc1`, with 0.205; and `C=CCNC(=O)Cc1ccc([N+](=O)[O-])cc1`, with 1.14. Consider `O=C(O)CCNC(=O)c1ccccc1`, for which the “T2 sensor activation Q score” value is 0.435.

With `CN1CCN(C(=O)CN(c2ccccc2F)S(C)(=O)=O)CC1`, the “T2 sensor activation Q score” value is -0.585. `Clc1ccccc1CN1CCOCC1`: the “T2 sensor activation Q score” value was determined as 0.745. For `O=C(Nc1ccc(F)cc1)Nc1ccc(Cl)cc1`, the “T2 sensor activation Q score” value is -1.48. Same read-out and setting: with `CCN(CC)c1ccc(NC(=O)c2ccco2)cc1` the figure was 1.79. The same measure, in the same setting: with `COc1ccc(CCNC(=O)C2CCCCC2)cc1OC` the figure was -0.81; with `Fc1ccc(OCCCN2CCOCC2)cc1`, 1.61; with `Clc1ccc(-c2cn3ccsc3n2)cc1`, 0.665. Still for that read-out and setting: with `O=C(O)CCC(=O)Nc1ccc2c(c1)oc1ccccc12` the figure was 0.205; with `COc1ccc(-c2nc3ccccc3[nH]2)cc1`, -0.55; with `COc1ccc(CC(=O)N2CCCC2)cc1`, 0.295. In the case of `O=C(O)Cn1cc(Br)c(=O)[nH]c1=O`, the “T2 sensor activation Q score” value was -0.64. As to `O=[N+]([O-])c1ccc(CN2CCN(c3ncccn3)CC2)cc1`, the “T2 sensor activation Q score” value was 1.12. Still for that read-out and setting: with `CCCC(O)=C1C(=O)CC(C)(C)CC1=Nc1ccncc1` the figure was -0.83; with `Cc1ccc(NC(=O)NC(C)(C)C)cc1`, -0.81; with `CCc1ccc(OCC(O)CN2CCCC2)cc1` (stereo not drawn), -0.765. On the same count and under the same terms, then `CC(=O)NCC1OCCc2ccccc21` (stereo not drawn), with -0.39; and `CN1c2ccccc2N(C)C1c1ccc2c(c1)OCO2`, with -0.095; and `Nc1nnc(Cc2ccc([N+](=O)[O-])cc2)s1`, with -1.16. Regarding `Cc1cccc(N2C(=O)CC(N3CCN(c4ccc(Cl)cc4)CC3)C2=O)c1` (stereo not drawn), the “T2 sensor activation Q score” value is -0.145.

As to `COc1ccc(CNCc2ccc(OC)cc2)cc1`, the “T2 sensor activation Q score” value came to 1.74. The same measure, in the same setting: with `Nc1nc(N)nc(-c2ccc(I)cc2)n1` the figure was 1.09; with `NNC(=O)c1n[nH]c2c1CCCC2`, -0.625. Regarding `NCc1ccc(C(=O)NN)cc1`, the “T2 sensor activation Q score” value was 0.77.
